Data as given in PubChem BioAssay AID1259308 (NCATS, 2017)

- Test: 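Genes whose loss raises luciferase production in HEK293 cells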 (primary screen)
- Cells: human HEK293 embryonic kidney cells stably expressing firefly luciferase (HEK-CMV-Luc2-Hygro)
- Reagent: single siRNA against human genes, 0.8 pmol siRNA per well
- Timing: 72 h
- Measurement: 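Reporter luminescence and viable-cell signal on separate replicate plates, given as percent of non-targeting control and median/MAD z-scores, plus per-cell luciferase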
- Reading the numbers: total luciferase, z-score and total luciferase, % of control: higher = more reporter protein produced
- Rule for the call: 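An siRNA counts as active if its total luciferase robust z-score exceeds 3; genes with two or more such siRNAs out of three were retested with fresh siRNAs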
- Meaning of the calls: active = raised luciferase; inactive = no rise
Here is one part, drawn at random, of about 59,000 reagents tested. In the full data, about 1,510 (2.6%) are marked active. 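Calls use total luciferase alone and ignore viability, so some active siRNAs may act by altering cell number.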 The numbers tell different reagents against one gene apart. Not all columns of the deposit are shown.

EGR1 (GeneID 1958) #1 showed total luciferase, z-score 0.764; total luciferase, % of control 97.1; inactive.
EGR1 (GeneID 1958) #2 gave total luciferase, z-score 2.58; total luciferase, % of control 133; inactive.
EGR1 (GeneID 1958) #3 gave total luciferase, z-score -0.171; total luciferase, % of control 78.5; inactive.
For MAPK8 (GeneID 5599) #1 the deposit lists total luciferase, z-score -1.82; total luciferase, % of control 45.8; inactive.
MAPK8 (GeneID 5599) #2 showed total luciferase, z-score 0.823; total luciferase, % of control 98.2; inactive.
MAPK8 (GeneID 5599) #3 scored total luciferase, z-score 0.761; total luciferase, % of control 97; inactive.
Against UTF1 (GeneID 8433) #1, the entry reads total luciferase, z-score 1.52; total luciferase, % of control 112; inactive.
With knock-down of UTF1 (GeneID 8433) #2, the screen gave total luciferase, z-score 1.5; total luciferase, % of control 112; inactive.
Depletion of UTF1 (GeneID 8433) #3 gave: total luciferase, z-score -1.39; total luciferase, % of control 54.3; inactive.
TRAPPC10 (GeneID 7109) #1 showed total luciferase, z-score 0.234; total luciferase, % of control 86.5; inactive.
TRAPPC10 (GeneID 7109) #2 showed total luciferase, z-score -0.496; total luciferase, % of control 72; inactive.
TRAPPC10 (GeneID 7109) #3 scored total luciferase, z-score -1.39; total luciferase, % of control 54.2; inactive.

Already shown: an excerpt of the list.
TRAPPC10 (GeneID 7109) #1 | total luciferase, z-score = 0.234; total luciferase, % of control = 86.5; Call = inactive
TRAPPC10 (GeneID 7109) #2 | total luciferase, z-score = -0.496; total luciferase, % of control = 72; Call = inactive
